Percent effect of library compounds

Chains of the proteins cited; added tags and fusions are not shown. Residues count along the entry.
UniProt Q4DA54, 1-478: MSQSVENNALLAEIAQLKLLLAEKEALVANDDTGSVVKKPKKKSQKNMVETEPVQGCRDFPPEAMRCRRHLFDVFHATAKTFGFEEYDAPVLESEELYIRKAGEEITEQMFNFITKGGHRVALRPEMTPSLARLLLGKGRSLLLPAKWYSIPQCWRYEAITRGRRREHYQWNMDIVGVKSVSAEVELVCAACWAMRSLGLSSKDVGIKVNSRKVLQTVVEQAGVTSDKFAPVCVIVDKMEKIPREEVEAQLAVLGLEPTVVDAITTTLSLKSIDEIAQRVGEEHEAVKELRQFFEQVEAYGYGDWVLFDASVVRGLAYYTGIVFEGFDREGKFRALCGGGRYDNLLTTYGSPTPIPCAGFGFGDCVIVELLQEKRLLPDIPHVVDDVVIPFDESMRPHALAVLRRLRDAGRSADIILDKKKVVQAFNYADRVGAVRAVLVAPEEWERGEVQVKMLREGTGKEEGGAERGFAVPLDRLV

Each number is a percent effect as filed.
The record does not define 0% and 100%; most values in the screen are far below 50% and negative numbers occur (in some assays of this library far below -100).
The compounds are a random part of those screened.

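Histidine-tRNA ligase, Trypanosoma cruzi CL Brener (UniProt Q4DA54). Enzyme assay of histidyl-tRNA synthetase; the read-out is not stated. Compounds at 30 µM. Higher reads as stronger inhibition (inferred: compounds with an IC50 in retests scored well above the rest). Size under these conditions: about 69,000 compounds, about 31 of them at 50% or above in at least one test.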

- Cc1cc(C)c(C#N)c(N2CCC3(CCCN(CCO)C3=O)C2)n1 (configuration not stated) | 6.468%
- Cc1cnccc1N1CCCN(C(=O)CCCn2ccnc2C)CC1 | 3.061%
- Cc1cc(CN2CCN(CC3CC3)[C@@H]3CS(=O)(=O)C[C@@H]32)ccc1F | -17.88%
- Cc1cccc(C2CCCN(S(=O)(=O)c3cccnc3)C2)n1 (configuration not stated) | 7.28%
- Cc1noc(C)c1CN1CC[C@@H]2O[C@@H](COCC(C)C)CC[C@@H]21 | 5.946%
- c1csc(CN2CCC3(CCOCC3COCC3CC3)CC2)n1 (configuration not stated) | 2.222%
- COc1ccccc1-c1nc(C(=O)N(C)C)n2ccncc12 | -1.775%
- Cc1cc(C2CCCCN2C(=O)CN2CC3(CCNCC3)OC2=O)no1 (configuration not stated) | 3.488%
- Cc1nnc(CN(Cc2ccc3c(c2)OCO3)C2CCC(C)CC2)o1 (configuration not stated) | 1.744%
- CC(C)=CCN1CCN(Cc2cccc(C)n2)CC1CCO (configuration not stated) | -1.064%
- CC(=O)N1CCCC1c1cccc(Oc2ccccc2F)n1 (configuration not stated) | 4.444%
- O=C(NCCOc1ncc(Cl)cc1Cl)c1ccncc1 | 6.952%
- COCc1ncn2c1CN(S(=O)(=O)c1cccs1)CCC2 | 6.863%
- NC(=O)CN1CC2(CCC1=O)CCN(C(=O)c1ccccc1F)CC2 | 0.4464%
- Cc1oncc1C(=O)N1CC2CC1(C(=O)N1CCCC1)C2 | 0%
- Cn1c(=O)ccn(CC(=O)Nc2cccnc2)c1=O | 10.34%
- O=C(CCn1ccnn1)N1CCCC(n2cncn2)C1 (configuration not stated) | 4.348%
- CNC(=O)c1cn[nH]c1C1CCN(Cc2cccc(C)c2OC)C1 (configuration not stated) | 0.7605%
- O=S(=O)(Cc1ccc(F)cc1)NCc1nnc2n1CCC2 | 1.22%
- CCOc1cccc2c1OCC(C(=O)NS(=O)(=O)c1ccc(Br)s1)=C2 | -14.61%
- c1csc(CN2CCC3(CCCN3CC3CC3)CC2)n1 | 4.301%
- COc1cccc(Cn2ncnc2COC(C)C)c1 | -0.4292%
- COc1ccccc1CNC(=O)Cn1nc(-c2ccc(F)cc2)oc1=O | -1.183%
- CCCn1ncc(-c2ccnc(N[C@@H]3C[C@@H]4CC[C@H]3C4)n2)c1C | 2.703%
- CC(C)(C)c1nc(C(C)(C)NC(=O)C2CC(=O)N(CC3CC3)C2)no1 (configuration not stated) | 4.678%
- Cc1ccc2nc(C(=O)N3CCCC[C@]4(C)NC(=O)CCC[C@H]34)cn2c1 | 2.239%
- Cn1ncc(NC(=O)c2noc3c2CCCC3)c1C(=O)N1CCCCC1 | -9.249%
- CC(N)Cc1ccccc1Sc1ccccc1 (configuration not stated) | 8.247%
- COc1cccc(CN2CCN3C(=O)NC[C@H]3C2)n1 | -0.4975%
- CCc1nc2n(n1)CC(NCc1nnc(C(C)C)o1)CC2 (configuration not stated) | 6.105%
- CO[C@H]1CCN(c2nnc(C)s2)C[C@@H]1Cc1cccc(C)c1 | 2.488%

Once more, the final 3:

compound	effect
COc1cccc(CN2CCN3C(=O)NC[C@H]3C2)n1	-0.4975
CCc1nc2n(n1)CC(NCc1nnc(C(C)C)o1)CC2 (configuration not stated)	6.105
CO[C@H]1CCN(c2nnc(C)s2)C[C@@H]1Cc1cccc(C)c1	2.488

Source: ChEMBL document CHEMBL3988442, “University of Dundee, Small-Polar-MMV Screening Library” (2021).